The list is a part of this screen's results and no random one: it is rich in T/C values a quarter to a half above the control, in often repeated tests (any T/C) and in doses without a T/C. Further doses and runs are listed elsewhere. T/C: endpoint of the treated group in % of that of the vehicle group. Some doses have a count of surviving animals in place of a T/C: the source files T/C as zero there, which appears to mark a toxic dose or a test without result, not a measured value. Some doses without a T/C left all or most animals alive at the check, yet need not have been tolerated: the source hardly ever lists a survival T/C far under the control, and the zero likely stands for such cases as well. Counts of survivors are from the toxicity check (mostly the fifth day) where no day follows; animals may have died later. Schedule codes are those of the source, taken here to give the interval after Q, in days (D) or hours (H), and the number of doses after X. Some schedule codes hold Z or #, which are not explained here. Some entries were tested several times; the results are listed from low to high. For survival time, this PubChem deposit counts one and a half times the control or more as active, and values a quarter to a half above the control carry no call in these data; other NCI protocols may use other cut-offs. Some T/C values carry the count of animals alive at the toxicity check (mostly the fifth day); where none is given, no animal had died by that day.

The subject of the assay is L1210 leukemia ip in BDF1 mice, survival T/C. The assay is described as follows: NCI In Vivo Anticancer Drug Screen. Data for tumor model L1210 Leukemia (intraperitoneal) in B6D2F1 (BDF1) mice. The conditions noted are these: T/C endpoint: mean survival time, higher T/C = longer survival.
The mark [1] stands for this setting: dose: 100.0 mg/kg/injection, schedule: Q01DX001 (ip), vehicle: saline.
Where [2] appears, read: dose: 400.0 mg/kg/injection, schedule: Q01DX001 (ip), vehicle: saline.
Setting [3] is: dose: 200.0 mg/kg/injection, schedule: Q01DX001 (ip), vehicle: saline.
Where [4] appears, read: dose: 400.0 mg/kg/injection, schedule: Q04DX003 (ip), vehicle: saline.
[5] abbreviates: dose: 400.0 mg/kg/injection, schedule: Q04DX003 (ip), vehicle: Klucel (hydroxypropylcellulose) (HPC).
The mark [6] stands for this setting: dose: 300.0 mg/kg/injection, schedule: Q01DX001 (ip), vehicle: saline.
[7] abbreviates: dose: 100.0 mg/kg/injection, schedule: Q01DX009 (ip), vehicle: saline with Tween-80.
[8] abbreviates: dose: 200.0 mg/kg/injection, schedule: Q01DX001 (ip), vehicle: carboxymethylcellulose (CMC).
The mark [9] stands for this setting: dose: 400.0 mg/kg/injection, schedule: Q01DX001 (ip), vehicle: carboxymethylcellulose (CMC).
[10] abbreviates: dose: 400.0 mg/kg/injection, schedule: Q01DX009 (ip), vehicle: saline with Tween-80.

As to `CC1CN1P(=S)(N1CC1C)N1CC1C` (stereo not given), the T/C is, setting by setting: (dose: 15.0 mg/kg/injection, schedule: Q01DX015 (ip), vehicle: saline) 131 % of control; (dose: 24.0 mg/kg/injection, schedule: Q01DX015 (ip), vehicle: saline) 130 % of control; (dose: 30.0 mg/kg/injection, schedule: Q01DX015 (ip), vehicle: saline) 130 and 134 % of control; (dose: 48.0 mg/kg/injection, schedule: Q01DX001 (ip), vehicle: saline) 127 % of control; (dose: 72.0 mg/kg/injection, schedule: Q01DX001 (ip), vehicle: saline) 125 % of control; (dose: 96.0 mg/kg/injection, schedule: Q01DX001 (ip), vehicle: saline) 132 % of control. For the same compound, the T/C under setting [1] was 144 % of control [5 of 6 alive]. Besides, the survivor count by setting is: (dose: 120.0 mg/kg/injection, schedule: Q01DX015 (ip), vehicle: saline) 5 of 6; (dose: 144.0 mg/kg/injection, schedule: Q01DX Z (ip), vehicle: saline) 6 of 6; (dose: 324.0 mg/kg/injection, schedule: Q01DX001 (ip), vehicle: saline) 6 of 6; under setting [2], 3 of 6.
`CCCN(CCC)CCCN(CCC)CCCCN(CCC)CCCN(CCC)CCC`: the survivor count is 2 of 4 under setting [3] and 0 of 4 under setting [2].
In the case of `CCC[N+](C)(C)CCOC(=O)C1C2CC3OC(=O)C1C3C2` (stereo not given), the survivor count under setting [4] is 0 of 4.
`COc1ccc(N(CCO)CCO)cc1`: the survivor count under setting [2] is given as 2 of 4.
In the case of `ClCC1Oc2ccccc2O1`, the survivor count (dose: 200.0 mg/kg/injection, schedule: Q01DX001 (ip), vehicle: other) is listed as 6 of 6.
Regarding `C(=C\C[n+]1ccccc1)/C[n+]1ccccc1`, under setting [2], the survivor count is given as 0 of 4.
Take `O=C1NC(c2cccs2)(c2cccs2)C(=O)N1Cl`: the survivor count reads like this: (dose: 100.0 mg/kg/injection, schedule: Q01DX009 (ip), vehicle: water) 3 of 6; (dose: 200.0 mg/kg/injection, schedule: Q04DX003 (ip), vehicle: water) 3 of 6; (dose: 400.0 mg/kg/injection, schedule: Q04DX003 (ip), vehicle: water) 0 of 6.
As to `CCC(C)C(C=O)(CCN(C)CC)c1cccc2ccccc12` (stereo not given), the survivor count (dose: 100.0 mg/kg/injection, schedule: Q04DX002 (ip), vehicle: saline with Tween-80) is recorded as 1 of 3.
With `[N-]=[N+]=Nc1ccc(Cl)cc1C(=O)c1ccccc1`, the survivor count reads like this: (dose: 200.0 mg/kg/injection, schedule: Q04DX003 (ip), vehicle: saline) 0 of 6; under setting [4], 0 of 6.
For `O=C1C=C2C=CC3CC2(O1)C1CCCCN31` (stereo not given), the survivor count is 2 of 4 (dose: 40.0 mg/kg/injection, schedule: Q01DX001 (ip), vehicle: saline); 1 of 4 and 2 of 4 under setting [2].
`O=C1C2CCN(CC2)C1CN1CCC(O)(c2ccc(Cl)cc2)CC1` (stereo not given): the survivor count under setting [5] is on record as 0 of 6.
`CCC1CCC(N)CC1` (stereo not given): the survivor count is recorded as 3 of 6 (dose: 150.0 mg/kg/injection, schedule: Q01DX001 (ip), vehicle: saline) and 0 of 6 under setting [6].
As to `CC1(C)CCN1Cc1ccccc1`, the survivor count by setting is: under setting [1], 2 of 6; under setting [3], 0 of 6; under setting [2], 0 of 6.
As to `Nc1ccc(CCCCc2ccccc2)cc1`, under setting [7], the survivor count was 5 of 6.
Consider `OCCCNc1nc2ccccc2c2ccccc12`, for which, for the setting “dose: 400.0 mg/kg/injection, schedule: Q01DX009 (ip), vehicle: saline”, the survivor count was 0 of 6.
`CC(C)N(CCCCO)C(C)C`: the survivor count is 4 of 4 under setting [8] and 1 of 4 under setting [9].
Regarding `CN(C)c1ccc(C(N)C(=O)O)cc1` (stereo not given), the survivor count under setting [2] was 0 of 4.
For the compound `CC(C)(C)C(=O)Nc1ccncc1`, the survivor count by setting is: (dose: 50.0 mg/kg/injection, schedule: Q01DX001 (ip), vehicle: saline) 0 of 6; under setting [1], 0 of 6; under setting [3], 0 of 6.
Take `FC(F)(F)c1ccc2c(c1)N(CCCN1CCN(CCN3CCOCC3)CC1)c1ccccc1S2`: the survivor count reads like this: (dose: 6.25 mg/kg/injection, schedule: Q01DX009 (ip), vehicle: saline) 6 of 6; (dose: 12.5 mg/kg/injection, schedule: Q01DX009 (ip), vehicle: saline) 6 of 6; (dose: 25.0 mg/kg/injection, schedule: Q01DX009 (ip), vehicle: saline) 6 of 6; (dose: 50.0 mg/kg/injection, schedule: Q04DX003 (ip), vehicle: saline) 5 of 6; (dose: 100.0 mg/kg/injection, schedule: Q04DX003 (ip), vehicle: saline) 5 of 6.
For the compound `CC(C)=CN1CC2CCCC(CC2)C1`, under setting [5], the survivor count is on record as 1 of 6.
Regarding `Cc1cc2c(cn1)C(=O)C=CC2=O`, the survivor count is, setting by setting: (dose: 20.0 mg/kg/injection, schedule: Q01DX001 (ip), vehicle: carboxymethylcellulose (CMC)) 0 of 4; (dose: 40.0 mg/kg/injection, schedule: Q01DX001 (ip), vehicle: carboxymethylcellulose (CMC)) 0 of 4; (dose: 50.0 mg/kg/injection, schedule: Q01DX001 (ip), vehicle: carboxymethylcellulose (CMC)) 0 of 4; (dose: 80.0 mg/kg/injection, schedule: Q01DX001 (ip), vehicle: carboxymethylcellulose (CMC)) 0 of 4; (dose: 100.0 mg/kg/injection, schedule: Q01DX001 (ip), vehicle: carboxymethylcellulose (CMC)) 0 of 4; under setting [8], 0 of 4. In addition, under setting [9], the survivor count is 0 of 4.
`COc1cc(C(=O)COC(C)=O)cc2c1OC(c1ccccc1)(c1ccccc1)O2`: the survivor count under setting [1] was 4 of 4 and the survivor count under setting [2] is 4 of 4.
Consider `CCN(c1ccccc1)P(I)(c1ccccc1)(c1ccccc1)c1ccccc1`, for which the survivor count is, setting by setting: (dose: 75.0 mg/kg/injection, schedule: Q01DX001 (ip), vehicle: other) 1 of 6; (dose: 150.0 mg/kg/injection, schedule: Q01DX001 (ip), vehicle: other) 1 of 6; (dose: 300.0 mg/kg/injection, schedule: Q01DX001 (ip), vehicle: other) 0 of 6.
For `CCCC(Cl)C(=O)Nc1cccc(O)c1` (stereo not given), under setting [10], the survivor count is on record as 1 of 6.
As for `O=C(Nc1ccccc1)c1ccc(C(F)(F)F)cc1O`, the survivor count (dose: 400.0 mg/kg/injection, schedule: Q04DX002 (ip), vehicle: saline with Tween-80) is reported as 0 of 3.
As to `NC1CCC(CCCC2CCCC2)CC1` (stereo not given), the survivor count reads like this: under setting [7], 0 of 6; (dose: 200.0 mg/kg/injection, schedule: Q01DX009 (ip), vehicle: saline with Tween-80) 0 of 6; under setting [10], 0 of 6.
For the compound `COC(=O)c1ccc(C(=O)CC(=O)c2ccccc2)cc1.COC(=O)c1ccc(C(=O)CC(=O)c2ccccc2)cc1.COC(=O)c1ccc(C(=O)CC(=O)c2ccccc2)cc1.COC(=O)c1ccc(C(=O)CC(=O)c2ccccc2)cc1.COC(=O)c1ccc(C(=O)CC(=O)c2ccccc2)cc1.[Th]`, the survivor count runs as follows: (dose: 200.0 mg/kg/injection, schedule: Q01DX005 (ip), vehicle: Klucel (hydroxypropylcellulose) (HPC)) 3 of 3; (dose: 400.0 mg/kg/injection, schedule: Q01DX005 (ip), vehicle: Klucel (hydroxypropylcellulose) (HPC)) 2 of 3.
Take `CC(=O)Nc1nc2ncc(CCN(C)c3ccc(C(=O)O)cc3)nc2c(=O)[nH]1`: the survivor count under setting [6] is 4 of 6.

The values above are taken from PubChem BioAssay AID248 (DTP/NCI, 2004).
